# Data as given in PubChem BioAssay AID2685 (National Center for Advancing Translational Sciences (NCATS), 2010).
# Values joined by “and” are separate entries in the source; they are usually repeats but may differ in a detail not shown here. Equal entries are not always repeated. The list shows a part of the results. Shown are side measurements of this screen, not its main read-out; they come without a call. Compounds called inactive in the main read-out are mostly missing here. Potencies come from curve fits of mixed quality, noted in brackets.
# Experiment: qHTS Assay for Lipid Storage Modulators in Drosophila S3 Cells;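 on cell number change: cells counted by Cell Tracker Red CMTPX staining in the red channel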
# Settings: BODIPY lipid droplet fluorescence, 18-24 h; for cell number change: measured here: cell count max response, cells fed with added oleic acid
# Procedure, shortened: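 Laser-scanning cytometry quantifies lipid droplet accumulation (500–530 nm total intensity; droplet/cell object ratio) in oleic acid-fed (400 uM added) Drosophila S3 cells treated with a concentration series. 20 uM Triacsin C defined 100% inhibition.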
# [1] = measured here: cell number channel AC50, cells fed with added oleic acid
# [2] = measured here: lipid fluorescence (Fed channel) AC50, cells fed with added oleic acid
SMILES,cell number change,AC50 [1],AC50 [2]
Cc1cc(S(=O)(=O)Nc2ccc(C(=O)NCc3ccncc3)cc2)ccc1F,30.6%,"20.6 µM [rising, single point]","29.1 µM [rising, single point]"
Cc1cccc(OCC(=O)Nc2cccc(-c3nnc(-c4ccccc4)o3)c2)c1C,25.1%,,"6.51 µM [rising, partial curve]"
Cc1ccc(OCC(=O)Nc2cccc(S(=O)(=O)N3CCCCCC3)c2)cc1C,19.8%,,"1.46 µM [rising, full curve, poor fit]"
C/C(=N\NC(=O)c1nnn(-c2nonc2N)c1CSc1ccc(C)cc1)c1ccco1,112%,"6.51 µM [falling, partial curve]","29.1 µM [falling, partial curve]"
O=c1[nH]c2ccc(S(=O)(=O)NCc3ccccn3)cc2s1,67.6%,"20.6 µM [rising, single point]",
O=C(c1ccc2ccccc2c1)N1CCN(c2ccc([N+](=O)[O-])c(N3CCOCC3)c2)CC1,-8.81%,,"16.4 µM [rising, partial curve, poor fit]"
CCCN1/C(=C(/C#N)C2=NS(=O)(=O)c3ccccc32)N(C)c2ccccc21,-1.21%,,"18.4 µM [rising, single point]"
COc1cc(/C=C2/C(=O)NN(c3cccc(C)c3)C2=O)ccc1OC(=O)c1ccco1,-15.5%,,"16.4 µM [falling, single point]"
O=C(Nc1ccc(S(=O)(=O)NC2CCCC2)cc1)c1cnccn1,,,"0.103 µM [rising, full curve, poor fit]"
Cc1cc(C)nc(N2CCCC(C(=O)NCCc3cccc(F)c3)C2)n1 (centres undefined),13.1%,,"2.06 µM [rising, partial curve]"
Cc1ccc2nc(-c3ccccn3)cc(C(=O)NC3CCN(C)CC3)c2c1,,,"1.16 µM [falling, full curve, poor fit]"
CCOCCCNC(=O)c1cccs1,,,"5.17 µM [falling, partial curve, poor fit]"
O=C(Nc1ccccc1-c1nc2ccccc2[nH]c1=O)c1cccs1,,,"0.58 µM [falling, full curve]"
CCOC(=O)C1=NNC(C(=O)c2ccc(Cl)cc2)C1c1ccccc1 (centres undefined),,"0.651 µM [rising, single point]","29.1 µM [falling, single point]"
COc1ccccc1C(CNC(=O)COc1ccccc1C)N1CCCC1 (centres undefined),1.75%,,
CCn1ncc(/C=C2/SC(=S)NC2=O)c1C,-1.52%,,"4.11 µM [rising, full curve]"
CCN1CCN(C(=O)Cn2cnc3sc(C)c(S(=O)(=O)N4CCN(c5ncccn5)CC4)c3c2=O)CC1,21.9%,,"0.00461 µM [falling, full curve, poor fit]"
Cc1ccn2c(NC(C)(C)C)c(-c3cccs3)nc2c1,-0.621%,,
Cc1nn(-c2ccccc2)cc1/C=N/O,62.1%,"5.8 µM [rising, full curve, poor fit]","7.31 µM [rising, partial curve]"

SMILES,cell number change,AC50 [1],AC50 [2]
Cc1cc[n+](C2=C([O-])c3ccccc3C(=O)/C2=N\S(=O)(=O)c2cccs2)cc1C,,,"6.51 µM [falling, partial curve]"
CN(C)c1ccc(NC2=C(Cl)C(=O)c3ccccc3C2=O)cc1,-30.1%,"32.6 µM [falling, single point]","0.206 µM [falling, full curve]"
COc1ccc(OC)c(NC(=O)CN(C)S(=O)(=O)c2ccc(Cl)cc2)c1,127%,"29.1 µM [rising, single point]","29.1 µM [rising, single point]"
CCOC(=O)c1sc(NC(=O)CSc2nnc(-c3ccco3)o2)c(C(=O)OCC)c1C,-14.2%,,
C=CCn1c(=O)c(C(=O)OCC)c(O)c2ccccc21,32%,"23.1 µM [rising, single point]","23.1 µM [rising, single point]"
COC(CNC(=O)CNC(=S)N(CCCN1CCOCC1)Cc1cccs1)OC,15%,,"0.13 µM [falling, full curve, poor fit]"
COc1cccc(-c2nc(NC3CCCC3)c3ccccc3n2)c1O,-33.6%,"16.4 µM [falling, single point]","18.4 µM [falling, single point]"
O=C(CCn1cnc2ccccc2c1=O)Nc1cccc(Cl)c1,-16.1%,"0.461 µM [falling, full curve, poor fit]","0.651 µM [falling, full curve, poor fit]"
O=C(Cn1cc(C(=O)c2ccco2)c2ccccc21)NC1CCCC1,-30.5%,"14.6 µM [falling, partial curve, poor fit]","7.31 µM [falling, partial curve]"
O=C(CCC(=O)c1cccs1)OCC(=O)N1CCN(S(=O)(=O)c2ccccc2)CC1,35.4%,"0.651 µM [falling, single point]",
Cc1ccc(CNC(=O)CN2C(=O)CSc3ccc(S(=O)(=O)N4CCC(C)CC4)cc32)cc1,0.989%,,
CS(=O)(=O)c1ccc(Cl)c(NC(=O)COC(=O)CCN=C2NS(=O)(=O)c3ccccc32)c1,-49.9%,"5.17 µM [falling, single point]","0.0651 µM [falling, full curve, poor fit]"
COC(=O)N/N=C/c1c(C)nn(-c2cccc(Cl)c2)c1Cl,2.06%,,"0.731 µM [rising, single point]"
O=C(COc1cccc2ccccc12)NNC(=O)CSCCO,-1.72%,,
COc1cc(SC)ccc1C(=O)Nc1cc(C)c(OCC(=O)N2CCOCC2)c(C)c1,-31.8%,"20.6 µM [falling, single point]","13 µM [falling, partial curve]"
CCOc1cc(/C=C2\C(=O)N(Cc3ccco3)C(C)=C2C(=O)OC)ccc1O,-22.6%,,"20.6 µM [falling, single point]"
CC(=O)c1ccc(OC(=O)C2CSC3(C)CCC(=O)N23)cc1 (centres undefined),1.59%,"3.26 µM [falling, single point]","6.51 µM [falling, single point]"
O=C(CCC(=O)Nc1ccccc1Cl)NNC(=O)c1ccccc1[N+](=O)[O-],-2.32%,,
COc1ccccc1C(=O)Nc1cccc(NC(=O)c2ccccc2C)c1,15.4%,,

# Individual results from the entries so far.
# O=C(Nc1ccc(S(=O)(=O)NC2CCCC2)cc1)c1cnccn1 | AC50 [2]: 0.103 µM [rising, full curve, poor fit]
# CCOc1cc(/C=C2\C(=O)N(Cc3ccco3)C(C)=C2C(=O)OC)ccc1O | AC50 [2]: 20.6 µM [falling, single point]

# Complete entries, quoted from the list.
# `COc1cccc(-c2nc(NC3CCCC3)c3ccccc3n2)c1O` reads cell number change: -33.6%; AC50 [1]: 16.4 µM [falling, single point]; AC50 [2]: 18.4 µM [falling, single point]
# `COc1ccc(OC)c(NC(=O)CN(C)S(=O)(=O)c2ccc(Cl)cc2)c1` reads cell number change: 127%; AC50 [1]: 29.1 µM [rising, single point]; AC50 [2]: 29.1 µM [rising, single point]
# `O=C(Cn1cc(C(=O)c2ccco2)c2ccccc21)NC1CCCC1` reads cell number change: -30.5%; AC50 [1]: 14.6 µM [falling, partial curve, poor fit]; AC50 [2]: 7.31 µM [falling, partial curve]

# More records follow:

SMILES,cell number change,AC50 [1],AC50 [2]
CCN(CC(=O)NC(C)(C)C)Cc1nc2c(Br)cc(Br)cc2c(=O)[nH]1,-2.11%,"0.731 µM [falling, full curve]","0.651 µM [falling, full curve]"
CCOc1cc(/C=C2\C(=O)N(Cc3ccc(C)cc3)C(C)=C2C(=O)OC)ccc1O,-22.1%,,"32.6 µM [falling, single point]"
CC1CC(=O)N(CC(=O)Nc2cccc(Cl)c2)c2ccccc2S1(=O)=O (centres undefined),-13%,,"29.1 µM [rising, single point]"
Cc1ccc(C(=O)N/C(=C/c2ccco2)C(=O)N2CCOCC2)cc1,0.952%,,"6.51 µM [rising, single point]"
CC(NC(=O)Cc1ccsc1)c1ccc(F)cc1 (centres undefined),23.4%,,
Cc1ccc(-c2nnc(-c3ccccc3)o2)cc1,-20%,,
COc1ccc2cc3c(N)nn(C(=O)c4ccc(OC)c(OC)c4)c3nc2c1,-9.3%,,"0.259 µM [rising, partial curve, poor fit]"
COC(=O)c1sc(NC(=O)COc2ccccc2OC)nc1C,49.3%,"29.1 µM [rising, single point]","7.31 µM [rising, partial curve]"
COC(CNS(=O)(=O)c1cccc2nonc12)OC,10.3%,"4.11 µM [falling, single point]","6.51 µM [falling, single point]"
COC(=O)c1ccc(C(=O)OC)c(NC(=S)N2CCN(c3ccc(F)cc3)CC2)c1,-16.2%,,"0.231 µM [rising, full curve, poor fit]"
Cc1ccc(NC(=O)COC(=O)Cc2csc(-c3cccc(F)c3)n2)cc1C,27.6%,,
COc1ccc(Cc2c(O)nc(SCC(=O)NC34CC5CC(CC(C5)C3)C4)[nH]c2=O)cc1,-42.2% and 0.654%,"1.64 µM [falling, partial curve]","731 nM [falling, full curve] and 4.61 µM [falling, single point]"
N#Cc1ccc(CSc2nnc(NC(=O)c3ccc(=O)[nH]c3)s2)cc1,0.624%,,"3.26 µM [rising, partial curve, poor fit]"
O=C1OC(Nc2cc(Br)cc3cccnc23)c2ccccc21 (centres undefined),-24.6%,,"3.66 µM [falling, single point]"
N#C/C(=C1\CCCN1)c1nc2ccccc2c(=O)[nH]1,-2.05%,,"0.82 µM [rising, full curve]"
CCOC(=O)C(NC(C)=O)C(=O)Nc1ccc(C)cc1C (centres undefined),-30%,,"36.6 µM [falling, partial curve, poor fit]"
Cc1ccc([C@@H]2[C@@H]3C(=O)N(c4ccccc4)C(=O)[C@@H]3[C@]3(C)C(=O)N(Cc4ccc(-c5ccccc5)cc4)CC(=O)N23)o1,17.4%,,"29.1 µM [falling, single point]"
CN(CC(=O)Nc1ccccc1)CC(=O)Nc1ccccc1Cl,-15.3%,,
COc1cccc(-c2nn(C)c3sc(C(=O)N4CCN(c5ccccn5)CC4)cc23)c1,-29.5%,,"2.06 µM [rising, partial curve]"
